# Values of other authors, collected in patent US7079956B2, “Crystal structure of antibiotics bound to the 30S ribosome and its use” (Medical Research Council, priority 2000, dated 2006).
# At least one structure is not confirmed: it was looked up by name or label, or the drawing left a doubt.
# Settings: literature values: Ross et al. 1998 (tetracycline), Cohen et al. 1969 (pactamycin), Cabanas et al. 1978 (hygromycin B)
smiles,measurement,value
"CN(C)[C@@H]1C(O)=C(C(N)=O)C(=O)[C@@]2(O)C(O)=C3C(=O)c4c(O)cccc4[C@@](C)(O)[C@H]3C[C@@H]12 [tetracycline, 4-[dimethylamino]-1,4,4a,5,5a,6,11,12a-octahydro-3,6,10,12,12a-pentahydroxy-6-methyl-1,11-dioxo-2-naphtacenecarboxamide]",minimum inhibitory concentration,0.3 to 3 µM
